Assay results from paper PMC2854715, “Oxpholipin 11D: An Anti-Inflammatory Peptide That Binds Cholesterol and Oxidized Phospholipids” (PLoS ONE, 2010).
Non-standard residues stand in square brackets, D forms with d. Residues, ends and D or L forms follow the SMILES beside them. dDip = N[C@@H](C(=O)O)C(c1ccccc1)c1ccccc1

Legend:
[1] = FTIR analysis of secondary structure; type: physicochemical; conditions: peak area error ±4%
[2] = Circular dichroism analysis of secondary structure; type: physicochemical
[3] = deuterium vapor hydrated DMPC multilayers, peptide:lipid 1∶10 mole:mole
[4] = hydrated DMPC:CHO (1.2∶1 mole:mole) multilayers, peptide:lipid 1∶10 mole:mole
[5] = peptide 1 mM in HFIP:deuterated buffer 4∶6 v:v, 25°C
[6] = peptide 1 mM in TFE:deuterated buffer 4∶6 v:v, 25°C
[7] = peptide 1 mM in deuterated 10 mM phosphate buffer pD 7.4, 25°C
[8] = peptide 100 µM in 10 mM phosphate buffer pH 7.4, 25°C
[9] = peptide 100 µM in HFIP:10 mM phosphate buffer pH 7.4 (4∶6, v:v), 25°C

Compound | Conformation (%) disordered, FTIR [1, 3] [%] | Conformation (%) turns, FTIR [1, 3] [%] | Conformation (%) α-helix, FTIR [1, 3] [%] | Conformation (%) β-sheet, FTIR [1, 3] [%] | Conformation (%) disordered, FTIR [1, 4] [%] | Conformation (%) turns, FTIR [1, 4] [%] | Conformation (%) α-helix, FTIR [1, 4] [%] | Conformation (%) β-sheet, FTIR [1, 4] [%] | Conformation (%) disordered, FTIR [1, 5] [%] | Conformation (%) turns, FTIR [1, 5] [%] | Conformation (%) α-helix, FTIR [1, 5] [%] | Conformation (%) β-sheet, FTIR [1, 5] [%] | Conformation (%) disordered, FTIR [1, 6] [%] | Conformation (%) turns, FTIR [1, 6] [%] | Conformation (%) α-helix, FTIR [1, 6] [%] | Conformation (%) β-sheet, FTIR [1, 6] [%] | Conformation (%) disordered, FTIR [1, 7] [%] | Conformation (%) turns, FTIR [1, 7] [%] | Conformation (%) α-helix, FTIR [1, 7] [%] | Conformation (%) β-sheet, FTIR [1, 7] [%] | further results
CC(C)C[C@@H](NC(=O)CNC(=O)[C@H](NC(=O)[C@H](NC(=O)[C@@H](CCC(=O)O)NC(=O)[C@H](N)CCCNC(=N)N)C(c1ccccc1)c1ccccc1)[C@H](C)O)C(=O)N[C@H](C)C(=O)N[C@H](Cc1c[nH]c2ccccc12)C(=O)N[C@H](CCC(=O)O)C(=O)N[C@H](Cc1c[nH]c2ccccc12)C(=O)N[C@H](Cc1c[nH]c2ccccc12)C(=O)N[C@H](CCCNC(=N)N)C(=O)N[C@@H](C(=O)N[C@@H](C(N)=O)C(C)C)[C@H](C)O [OxP-11D] (H-[dR][dE][dDip][dT]G[dL][dA][dW][dE][dW][dW][dR][dT][dV]-NH2; N-terminus assumed) | 24.2 | 24.4 | 26.5 | 24.9 | 20.2 | 27.7 | 29.5 | 22.6 | 20.0 | 37.3 | 32.4 | 10.3 | 13.2 | 31.0 | 32.9 | 22.9 | 21.4 | 24.8 | 20.1 | 33.7 | Conformation (%) disordered, CD [2, 8]: 36.0%; Conformation (%) turns, CD [2, 8]: 19.0%; Conformation (%) α-helix, CD [2, 8]: 15.0%; Conformation (%) β-sheet, CD [2, 8]: 30.0%; Conformation (%) disordered, CD [2, 9]: 28.0%; Conformation (%) turns, CD [2, 9]: 33.0%; Conformation (%) α-helix, CD [2, 9]: 25.0%; Conformation (%) β-sheet, CD [2, 9]: 14.0%
Ac-DWFKAFYDKVAEKFKEAF-NH2 [D-4F, a prominent apoA-I-mimetic peptide, Ac-…-NH2, reference compound] | 23.9 | 16.4 | 57.8 | 1.9 | 22.6 | 15.2 | 58.1 | 4.1 | 8.6 | 8.0 | 71.5 | 11.9 | 12.7 | 8.8 | 67.2 | 11.3 | 13.7 | 11.4 | 63.0 | 11.8 | Conformation (%) disordered, CD [2, 8]: 10.0%; Conformation (%) turns, CD [2, 8]: 12.0%; Conformation (%) α-helix, CD [2, 8]: 65.0%; Conformation (%) β-sheet, CD [2, 8]: 13.0%; Conformation (%) disordered, CD [2, 9]: 6.0%; Conformation (%) turns, CD [2, 9]: 9.0%; Conformation (%) α-helix, CD [2, 9]: 74.0%; Conformation (%) β-sheet, CD [2, 9]: 11.0%
